The values that follow come from the supplement of paper PMC10849652.

By UniProt entry, the sequences of proteins in these tests, tags left out. Where a name states a change or a piece, a line headed by the entry shows the natural chain unless it says otherwise.
UniProt Q9NRR3: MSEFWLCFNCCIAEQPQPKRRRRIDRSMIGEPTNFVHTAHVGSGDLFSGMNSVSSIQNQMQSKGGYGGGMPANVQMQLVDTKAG
UniProt Q6ZU80: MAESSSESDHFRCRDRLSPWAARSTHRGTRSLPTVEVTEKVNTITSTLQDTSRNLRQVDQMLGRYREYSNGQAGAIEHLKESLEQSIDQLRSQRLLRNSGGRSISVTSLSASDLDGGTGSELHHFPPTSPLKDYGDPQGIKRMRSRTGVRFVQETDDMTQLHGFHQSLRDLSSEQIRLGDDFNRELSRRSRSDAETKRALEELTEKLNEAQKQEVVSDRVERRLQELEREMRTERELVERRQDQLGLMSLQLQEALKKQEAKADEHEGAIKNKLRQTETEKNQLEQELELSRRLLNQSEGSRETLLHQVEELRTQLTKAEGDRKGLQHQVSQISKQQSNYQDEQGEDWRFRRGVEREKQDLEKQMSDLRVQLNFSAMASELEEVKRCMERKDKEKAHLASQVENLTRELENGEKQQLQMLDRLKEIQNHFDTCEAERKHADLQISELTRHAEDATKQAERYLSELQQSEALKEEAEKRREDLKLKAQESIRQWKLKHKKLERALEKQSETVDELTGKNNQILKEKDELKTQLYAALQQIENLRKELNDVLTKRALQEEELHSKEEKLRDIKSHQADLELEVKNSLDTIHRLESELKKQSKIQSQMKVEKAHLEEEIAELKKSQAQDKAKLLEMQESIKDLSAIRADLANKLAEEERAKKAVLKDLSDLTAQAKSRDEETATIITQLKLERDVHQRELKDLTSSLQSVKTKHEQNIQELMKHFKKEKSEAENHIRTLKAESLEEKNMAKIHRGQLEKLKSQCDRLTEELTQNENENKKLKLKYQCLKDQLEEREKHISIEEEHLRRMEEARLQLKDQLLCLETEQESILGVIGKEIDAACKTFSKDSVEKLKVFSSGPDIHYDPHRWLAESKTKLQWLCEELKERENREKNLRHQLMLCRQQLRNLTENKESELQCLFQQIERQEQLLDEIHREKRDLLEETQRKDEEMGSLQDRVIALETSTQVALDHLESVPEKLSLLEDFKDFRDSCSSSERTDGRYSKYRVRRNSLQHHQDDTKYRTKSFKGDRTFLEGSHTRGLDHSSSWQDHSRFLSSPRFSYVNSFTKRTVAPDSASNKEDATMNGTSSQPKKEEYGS
UniProt Q9HC77: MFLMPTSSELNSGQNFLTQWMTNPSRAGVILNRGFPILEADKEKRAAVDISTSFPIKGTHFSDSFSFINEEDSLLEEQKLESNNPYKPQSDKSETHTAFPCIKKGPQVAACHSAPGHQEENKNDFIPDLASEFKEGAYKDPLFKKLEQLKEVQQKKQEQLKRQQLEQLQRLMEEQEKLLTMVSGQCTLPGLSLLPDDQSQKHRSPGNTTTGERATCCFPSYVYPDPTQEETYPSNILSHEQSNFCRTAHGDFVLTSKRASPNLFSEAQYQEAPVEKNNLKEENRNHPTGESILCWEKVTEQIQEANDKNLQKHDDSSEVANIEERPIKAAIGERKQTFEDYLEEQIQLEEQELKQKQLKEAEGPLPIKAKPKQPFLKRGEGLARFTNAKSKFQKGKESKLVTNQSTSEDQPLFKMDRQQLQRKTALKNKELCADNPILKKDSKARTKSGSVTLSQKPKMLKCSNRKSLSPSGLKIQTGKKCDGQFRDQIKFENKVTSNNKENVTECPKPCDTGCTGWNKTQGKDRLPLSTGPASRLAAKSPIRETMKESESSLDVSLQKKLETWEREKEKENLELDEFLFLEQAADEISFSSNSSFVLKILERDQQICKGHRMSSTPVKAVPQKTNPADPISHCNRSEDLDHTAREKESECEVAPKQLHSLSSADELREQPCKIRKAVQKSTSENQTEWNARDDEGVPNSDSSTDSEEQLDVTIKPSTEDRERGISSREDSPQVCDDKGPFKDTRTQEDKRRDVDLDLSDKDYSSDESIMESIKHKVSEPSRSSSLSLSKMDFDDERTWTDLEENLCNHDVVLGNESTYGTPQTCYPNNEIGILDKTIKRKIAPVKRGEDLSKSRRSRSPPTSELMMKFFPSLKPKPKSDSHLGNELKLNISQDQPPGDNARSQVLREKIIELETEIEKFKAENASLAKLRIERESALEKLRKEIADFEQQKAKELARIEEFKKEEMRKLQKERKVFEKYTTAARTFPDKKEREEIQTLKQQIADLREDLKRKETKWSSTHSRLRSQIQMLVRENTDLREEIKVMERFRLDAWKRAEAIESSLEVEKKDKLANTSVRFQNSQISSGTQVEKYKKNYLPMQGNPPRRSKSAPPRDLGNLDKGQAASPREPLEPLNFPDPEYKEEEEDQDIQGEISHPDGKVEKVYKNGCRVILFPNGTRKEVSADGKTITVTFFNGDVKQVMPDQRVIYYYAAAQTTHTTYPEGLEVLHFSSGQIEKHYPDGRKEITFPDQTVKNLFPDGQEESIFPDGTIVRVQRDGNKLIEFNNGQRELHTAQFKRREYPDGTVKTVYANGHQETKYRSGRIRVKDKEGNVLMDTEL
UniProt Q86XR8: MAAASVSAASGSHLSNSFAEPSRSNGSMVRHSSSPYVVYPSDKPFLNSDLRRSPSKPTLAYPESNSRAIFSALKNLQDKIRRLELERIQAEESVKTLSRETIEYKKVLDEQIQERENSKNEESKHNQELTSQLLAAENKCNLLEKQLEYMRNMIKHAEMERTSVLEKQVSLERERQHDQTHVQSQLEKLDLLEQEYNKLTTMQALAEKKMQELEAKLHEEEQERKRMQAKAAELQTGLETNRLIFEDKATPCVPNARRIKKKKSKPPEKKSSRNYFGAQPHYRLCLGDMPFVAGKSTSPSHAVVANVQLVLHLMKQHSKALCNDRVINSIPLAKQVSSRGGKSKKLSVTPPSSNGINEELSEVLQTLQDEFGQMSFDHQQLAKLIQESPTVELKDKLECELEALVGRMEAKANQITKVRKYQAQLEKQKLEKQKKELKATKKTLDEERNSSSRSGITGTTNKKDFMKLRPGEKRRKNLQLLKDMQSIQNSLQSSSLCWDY
UniProt Q5VXU3: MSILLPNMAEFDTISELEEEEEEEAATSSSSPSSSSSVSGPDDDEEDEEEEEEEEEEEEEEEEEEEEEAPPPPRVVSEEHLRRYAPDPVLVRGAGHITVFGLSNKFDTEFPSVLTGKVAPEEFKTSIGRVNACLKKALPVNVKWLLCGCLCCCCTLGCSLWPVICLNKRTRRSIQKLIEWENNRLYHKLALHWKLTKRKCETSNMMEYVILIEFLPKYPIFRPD
UniProt P26374: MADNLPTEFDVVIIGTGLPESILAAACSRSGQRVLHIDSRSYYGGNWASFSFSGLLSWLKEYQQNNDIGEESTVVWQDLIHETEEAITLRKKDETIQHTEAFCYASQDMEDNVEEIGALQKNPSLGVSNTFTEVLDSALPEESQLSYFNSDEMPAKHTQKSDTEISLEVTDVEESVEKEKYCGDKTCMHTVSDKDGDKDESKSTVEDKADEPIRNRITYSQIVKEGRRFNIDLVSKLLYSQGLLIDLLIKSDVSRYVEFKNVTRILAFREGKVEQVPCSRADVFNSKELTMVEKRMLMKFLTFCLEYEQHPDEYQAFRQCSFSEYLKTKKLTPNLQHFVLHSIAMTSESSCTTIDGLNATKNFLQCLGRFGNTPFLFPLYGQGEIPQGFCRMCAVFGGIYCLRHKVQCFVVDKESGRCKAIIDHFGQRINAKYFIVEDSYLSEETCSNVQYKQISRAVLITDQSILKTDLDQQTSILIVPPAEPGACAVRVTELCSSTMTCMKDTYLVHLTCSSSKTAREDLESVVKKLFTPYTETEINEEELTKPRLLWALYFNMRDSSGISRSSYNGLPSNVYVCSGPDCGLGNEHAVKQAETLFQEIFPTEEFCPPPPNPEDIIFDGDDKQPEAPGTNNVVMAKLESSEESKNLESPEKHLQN
UniProt Q9BV73: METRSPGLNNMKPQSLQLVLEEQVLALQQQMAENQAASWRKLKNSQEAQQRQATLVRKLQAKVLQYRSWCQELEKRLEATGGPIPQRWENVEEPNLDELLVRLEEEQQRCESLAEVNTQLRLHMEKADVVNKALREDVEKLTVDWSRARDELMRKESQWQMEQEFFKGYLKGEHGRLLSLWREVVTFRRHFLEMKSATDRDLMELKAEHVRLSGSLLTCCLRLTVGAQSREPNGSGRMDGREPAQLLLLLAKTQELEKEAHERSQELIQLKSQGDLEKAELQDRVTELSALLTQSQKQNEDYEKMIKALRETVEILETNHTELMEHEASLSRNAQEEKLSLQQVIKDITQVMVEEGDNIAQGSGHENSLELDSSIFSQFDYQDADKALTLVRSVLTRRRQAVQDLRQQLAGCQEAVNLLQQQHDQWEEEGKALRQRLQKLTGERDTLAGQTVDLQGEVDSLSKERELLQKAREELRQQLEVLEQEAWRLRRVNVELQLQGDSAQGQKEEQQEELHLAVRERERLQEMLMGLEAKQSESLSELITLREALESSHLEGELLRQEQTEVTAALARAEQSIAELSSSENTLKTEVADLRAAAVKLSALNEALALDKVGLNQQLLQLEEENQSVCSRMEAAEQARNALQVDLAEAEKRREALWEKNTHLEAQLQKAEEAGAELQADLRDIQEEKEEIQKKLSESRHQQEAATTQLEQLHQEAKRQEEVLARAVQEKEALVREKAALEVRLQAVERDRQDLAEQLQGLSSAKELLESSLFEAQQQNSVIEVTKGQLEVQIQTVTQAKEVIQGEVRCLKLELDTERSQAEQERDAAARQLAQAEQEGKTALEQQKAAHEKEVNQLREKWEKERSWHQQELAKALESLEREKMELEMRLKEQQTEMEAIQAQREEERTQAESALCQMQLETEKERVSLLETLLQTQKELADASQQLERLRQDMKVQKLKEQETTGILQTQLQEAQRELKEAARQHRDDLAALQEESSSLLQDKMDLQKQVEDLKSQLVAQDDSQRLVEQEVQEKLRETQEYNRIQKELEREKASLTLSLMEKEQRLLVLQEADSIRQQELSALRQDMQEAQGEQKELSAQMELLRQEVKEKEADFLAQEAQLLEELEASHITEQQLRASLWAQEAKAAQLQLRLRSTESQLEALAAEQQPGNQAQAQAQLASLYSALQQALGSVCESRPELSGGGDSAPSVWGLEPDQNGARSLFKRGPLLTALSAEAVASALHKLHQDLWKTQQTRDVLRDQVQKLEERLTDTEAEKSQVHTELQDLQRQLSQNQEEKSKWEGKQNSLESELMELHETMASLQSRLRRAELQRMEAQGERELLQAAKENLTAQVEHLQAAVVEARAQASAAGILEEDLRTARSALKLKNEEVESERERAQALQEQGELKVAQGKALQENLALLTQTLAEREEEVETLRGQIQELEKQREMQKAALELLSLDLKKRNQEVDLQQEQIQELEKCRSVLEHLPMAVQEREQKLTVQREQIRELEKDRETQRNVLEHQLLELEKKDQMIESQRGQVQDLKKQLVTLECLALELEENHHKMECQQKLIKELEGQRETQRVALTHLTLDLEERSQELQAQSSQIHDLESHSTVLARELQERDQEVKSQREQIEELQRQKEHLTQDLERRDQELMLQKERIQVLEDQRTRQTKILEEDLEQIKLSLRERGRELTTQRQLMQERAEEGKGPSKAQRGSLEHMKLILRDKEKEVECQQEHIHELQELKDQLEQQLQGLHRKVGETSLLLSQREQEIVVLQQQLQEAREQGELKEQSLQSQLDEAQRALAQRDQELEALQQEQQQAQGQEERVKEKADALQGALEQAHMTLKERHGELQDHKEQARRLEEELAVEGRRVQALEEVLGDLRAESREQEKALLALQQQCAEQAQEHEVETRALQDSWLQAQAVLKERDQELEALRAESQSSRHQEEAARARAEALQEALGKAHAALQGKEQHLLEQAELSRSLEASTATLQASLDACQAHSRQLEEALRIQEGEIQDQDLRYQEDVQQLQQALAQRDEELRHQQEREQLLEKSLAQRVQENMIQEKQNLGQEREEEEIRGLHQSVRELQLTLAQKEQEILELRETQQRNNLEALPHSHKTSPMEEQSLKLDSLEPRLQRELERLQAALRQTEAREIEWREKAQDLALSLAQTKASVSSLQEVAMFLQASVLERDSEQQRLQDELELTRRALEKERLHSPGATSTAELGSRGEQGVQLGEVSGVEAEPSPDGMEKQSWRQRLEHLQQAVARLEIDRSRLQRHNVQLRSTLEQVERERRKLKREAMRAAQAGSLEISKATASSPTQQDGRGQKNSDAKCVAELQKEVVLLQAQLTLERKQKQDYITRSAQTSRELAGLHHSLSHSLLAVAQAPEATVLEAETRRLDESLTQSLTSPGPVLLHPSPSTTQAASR
UniProt Q9BRQ6: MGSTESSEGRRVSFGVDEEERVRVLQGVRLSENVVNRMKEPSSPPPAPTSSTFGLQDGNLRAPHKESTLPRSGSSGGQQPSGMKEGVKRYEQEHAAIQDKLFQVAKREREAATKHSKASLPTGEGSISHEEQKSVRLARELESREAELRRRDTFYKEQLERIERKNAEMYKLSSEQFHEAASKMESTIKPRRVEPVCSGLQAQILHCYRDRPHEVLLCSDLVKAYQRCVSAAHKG

The other results are listed elsewhere or left out.

Compound in this assay: NC(=O)Nc1cc(-c2cccc(F)c2)sc1C(=O)N[C@H]1CCCNC1
The assay is described as follows: log2 fold change, soluble protein after heating vs DMSO (PISA); higher = thermal stabilisation; K562 cells, 10 uM, 30 min; active = over 0.2 and 3.5 SD of the protein, either way, in both replicates (recomputed). The method, boiled down: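 Soluble protein was quantified by TMTpro 16plex LC-MS/MS after channel sums were equalised. It was obtained as the supernatant after 21,000xg for 90 min from pooled aliquots of K562 cells (2×10^6 cells/mL, 10 μM compound, 30 min) heated for 3 min across 48°C-58°C and extracted in PBS with 0.5% NP-40 at 4°C. Thermal stability values are relative to control samples and come from duplicates. They are given as log2 fold changes.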
For CENPE (UniProt Q02224), the log2 fold change was inactive: 0.127.

As to CEP97 isoform 2 (UniProt Q8IW35), the log2 fold change is inactive: -0.056.

Turning to CEP135 (UniProt Q66GS9), the log2 fold change is inactive: -0.113.

For CFAP36 isoform 2 (UniProt Q96G28), the log2 fold change was inactive: 0.027.

In the case of CEP120 (UniProt Q8N960), the log2 fold change was inactive: -0.483.

Turning to CEP170 (UniProt Q5SW79), the log2 fold change is inactive: 0.001.

On to CDC5L (UniProt Q99459), for which the log2 fold change is inactive: -0.193.

CDKN2C (UniProt P42773): the log2 fold change is inactive: 0.07.

Take CDK4 (UniProt P11802): the log2 fold change is inactive: 0.015.

As for CDC42SE2 (UniProt Q9NRR3), the log2 fold change was inactive: -0.021.

Consider CDC45 isoform 3 (UniProt O75419), for which the log2 fold change is inactive: 0.179.

With CEP128 (UniProt Q6ZU80), the log2 fold change is inactive: -0.182.

Take CFAP97 (UniProt Q9P2B7): the log2 fold change is inactive: 0.048.

As to CENPJ (UniProt Q9HC77), the log2 fold change is inactive: -0.028.

Turning to CEP57 (UniProt Q86XR8), the log2 fold change is inactive: -0.226.

In the case of CDKAL1 (UniProt Q5VV42), the log2 fold change was inactive: -0.017.

On to CHIC1 (UniProt Q5VXU3), for which the log2 fold change was inactive: -0.22.

With CEP350 (UniProt Q5VT06), the log2 fold change is inactive: -0.128.

As to CEP131 (UniProt Q9UPN4), the log2 fold change was inactive: 0.375.

CEBPZ (UniProt Q03701): the log2 fold change is inactive: -0.203.

With CHID1 (UniProt Q9BWS9), the log2 fold change was inactive: 0.049.

As for CDC42SE1 (UniProt Q9NRR8), the log2 fold change was inactive: -0.244.

In the case of CDK1 (UniProt P06493), the log2 fold change is inactive: -0.036.

In the case of CHAF1A (UniProt Q13111), the log2 fold change is inactive: 0.087.

Consider CHML (UniProt P26374), for which the log2 fold change was inactive: -0.01.

As for CEP250 (UniProt Q9BV73), the log2 fold change was inactive: -0.042.

As for CENPO (UniProt Q9BU64), the log2 fold change is inactive: 0.121.

Take CENPH (UniProt Q9H3R5): the log2 fold change is inactive: -0.039.

Turning to CHMP4B (UniProt Q9H444), the log2 fold change was active: 0.255.

With CENPU (UniProt Q71F23), the log2 fold change was inactive: 0.249.

As to CHCHD6 (UniProt Q9BRQ6), the log2 fold change is inactive: 0.076.

On to CFB (UniProt P00751), for which the log2 fold change is inactive: -0.398.

Regarding CDK2AP1 (UniProt O14519), the log2 fold change was inactive: 0.111.

As for CEP152 (UniProt O94986), the log2 fold change was inactive: -0.333.

In the case of CHCHD7 isoform 4 (UniProt Q9BUK0), the log2 fold change was inactive: -0.019.

In the case of CEND1 (UniProt Q8N111), the log2 fold change is inactive: -0.122.

Turning to CDC42EP4 (UniProt Q9H3Q1), the log2 fold change was inactive: -0.023.

For CDKN1C (UniProt P49918), the log2 fold change was inactive: 0.094.

As for CDKN1B (UniProt P46527), the log2 fold change is inactive: -0.154.
